# Results deposited as PubChem BioAssay AID652259 (Drosophila RNAi Screening Center, 2013)
# Purpose: 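Identify new Wingless signalling regulators in fly cells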 (primary screen)
# System: Drosophila clone 8 imaginal disc epithelial cells
# Reagent: long dsRNA against Drosophila genes
# Treatment: pathway stimulated by co-transfected Wingless expression plasmid
# Read-out: 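Firefly luciferase from a tcf-site Wingless reporter, measured alongside co-transfected Renilla luciferase that tracks transfection; pathway stimulated by a Wingless plasmid; the firefly-to-Renilla ratio is not deposited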
# Scale: firefly reporter light: higher = more Wg reporter light, before normalisation; Renilla control light: higher = more transfected or surviving cells
# Hit rule: 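a knock-down is a candidate when at least two out of four statistical tests show it departing from its plate mean; one test alone signals a weak candidate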
# Calls: active = candidate regulator (raises or lowers reporter); inactive = not a candidate
# The deposit covers about 22,000 reagents; this is an unselected part of those with a known target gene and a result. In the full data, 233 (1.1%) got an active call. 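Light values are raw, unnormalised plate reads; the ratio scores behind the reporter calls were not deposited.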 Entries without a mark were called inactive. A plus sign joins genes that one reagent is predicted to hit. The record does not give: the amount of reagent, the time to read-out, the dose of the treatment.
predicted target,DRSC id,"reporter change call, replicate 1","firefly reporter light, replicate 1","firefly reporter light, replicate 2","Renilla control light, replicate 1","Renilla control light, replicate 2"
COX3 (retired record) (GeneID 192471),DRSC21279,,16212,,6570,
Dnaaf5 (GeneID 318680),DRSC13032,,2892,,1212,
Gr10a (GeneID 117501),DRSC18897,,5446,,3085,
Gr10a (GeneID 117501),DRSC22792,,6.92e5,6.97e5,2.90e5,3.25e5
Pof (GeneID 37947),DRSC04405,,8480,,2187,
gkt (GeneID 33530),DRSC00821,,2103,8189,683,3093
Marc (GeneID 36014),DRSC06614,,3600,10435,1008,3637
CG34205 (GeneID 37526),DRSC04149,,3028,11312,1000,3957
CG34205 (GeneID 37526),DRSC22823,,5.51e5,5.11e5,2.35e5,2.98e5
CG7130 (GeneID 40450),DRSC11797,,22056,,6828,
Ance (GeneID 34805),DRSC01865,,7446,,2045,
CG8312 (GeneID 41163),DRSC16406,,9334,,2203,
CG6726 (GeneID 42728),DRSC16101,,18064,,13040,
aqrs (GeneID 43396),DRSC14724,,8790,,2693,
CG10140 (GeneID 39511),DRSC09704,,7888,,2950,
mim (GeneID 2768716),DRSC05013,,1834,6124,208,930
puml (GeneID 35733),DRSC06793,,2106,7347,260,3213
Chd3 (GeneID 40111),DRSC11114,Wg reporter activity raised (active),26810,,2393,
Met75Ca + Met75Cb,DRSC09549,,3357,,1901,
Met75Ca + Met75Cb,DRSC11221,,11009,,3770,
CG11964 (GeneID 41068),DRSC14447,,6026,,1925,
Polr2C (GeneID 34796),DRSC03415,,9786,,1797,
ppk23 (GeneID 32731),DRSC20110,,19315,,8208,
CG7332 (GeneID 32885),DRSC20038,,3168,7324,1101,2140
Sur-8 (GeneID 42093),DRSC15794,,11708,,3383,
Nopp140 (GeneID 40433),DRSC11872,,21568,,6804,
Sos (GeneID 34790),DRSC03439,Wg reporter activity raised (active),5248,11684,816,2485
CG15145 (GeneID 35064),DRSC02446,,1994,6945,1040,3302
CG5808 (GeneID 42957),DRSC14124,,1928,5004,848,1433
SkpB (GeneID 36298),DRSC07683,,12007,,2860,
RhoGAP54D (GeneID 36996),DRSC06990,,5561,,1507,
CG34194 (GeneID 5740534),DRSC05666,,17221,,10355,
seq (GeneID 3772396),DRSC06863,,7798,,1443,
CG15649 (GeneID 37371),DRSC04240,,2868,11979,873,3482
CG5895 (GeneID 39752),DRSC10554,,7872,,3527,
Ptp4E (GeneID 31425),DRSC18701,,2202,9408,662,1571
CG5984 (GeneID 43281),DRSC15930,,6122,,4278,
CG3277 (GeneID 33543),DRSC00588,,2003,4360,1025,2035
CG8460 (GeneID 34115),DRSC03090,,9834,,4336,
fu (GeneID 32855),DRSC20333,,20593,,8792,
WASp (GeneID 43402),DRSC15032,,10624,,3652,
Mps1 (GeneID 42126),DRSC16273,,3168,6985,1218,2112
CG6770 (GeneID 34621),DRSC02992,,1900,6418,961,2560
CG31198 (GeneID 318622),DRSC15891,,2626,7366,1285,2069
CG13875 (GeneID 38024),DRSC08345,,5274,,2902,
CG1105 (GeneID 40841),DRSC12528,,2721,,1323,
CG7945 (GeneID 39679),DRSC10934,,3584,,1383,
eIF3g2 (GeneID 42422),DRSC14275,,20624,,2138,
stum (GeneID 37473),DRSC04268,,2082,8333,877,3175
stum (GeneID 37473),DRSC04270,,2711,8194,829,2849
CG32576 (GeneID 318095),DRSC19136,,3229,,1340,
mmy (GeneID 33903),DRSC02002,,4960,,2737,
CG4267 (GeneID 33405),DRSC00102,,15015,,9146,
CG4267 (GeneID 33405),DRSC00647,,2115,3522,749,1667
MED25 (GeneID 42385),DRSC14483,,2768,4064,256,394
SdhCL (GeneID 41324),DRSC16078,,22761,,5929,
CG7049 (GeneID 38022),DRSC08587,,12327,,3947,
CG15653 (GeneID 37388),DRSC04244,,2824,8714,924,4204
CG14570 (GeneID 40416),DRSC11731,,19907,,5660,
Cyp12a4 (GeneID 42294),DRSC16620,,9184,,2192,
CG15764 (GeneID 31516),DRSC18070,,18697,,7661,
CG15803 (GeneID 42206),DRSC15121,,12291,,3872,
Eig71Ee (GeneID 39706),DRSC11152,,10560,,6345,
CecA2 (GeneID 43597),DRSC16604,,4384,,2249,
AGO3 (GeneID 3355150),DRSC21386,,2.91e5,2.80e5,1.47e5,1.01e5
Mfap1 (GeneID 38256),DRSC08154,,15120,,2755,
CG42340 (GeneID 7354472),DRSC17458,,3120,,1347,
CG42340 (GeneID 7354472),DRSC17841,,22928,,11293,
CG42340 (GeneID 7354472),DRSC18305,,22282,,10266,
CG42340 (GeneID 7354472),DRSC21619,,6.03e5,6.22e5,3.72e5,2.42e5
CG34370 (GeneID 5740565),DRSC03913,,34400,,11104,
CG34370 (GeneID 5740565),DRSC04142,,1861,7542,704,2968
CG34370 (GeneID 5740565),DRSC04143,,2544,7698,810,2689
CG34370 (GeneID 5740565),DRSC04144,,3024,10002,586,1985
BicC (GeneID 34946),DRSC02005,,2233,5818,747,3008
prg (GeneID 34177),DRSC03324,,3576,10533,1020,2645
fau (GeneID 41291),DRSC12816,,3603,,1320,
fau (GeneID 41291),DRSC12817,,3031,,1613,
fau (GeneID 41291),DRSC16943,,6403,,3126,
fau (GeneID 41291),DRSC16944,,13616,,3718,
fau (GeneID 41291),DRSC16945,,18647,,5206,
fau (GeneID 41291),DRSC22360,,6.89e5,6.81e5,2.37e5,2.05e5
CG32075 (GeneID 326192),DRSC10622,,4872,,2221,
Piezo (GeneID 34112),DRSC03092,,12352,,6173,
Piezo (GeneID 34112),DRSC03391,,2141,5763,809,2740
CG32695 (GeneID 31918),DRSC17975,,22915,,14488,
CG12491 + CG34105,DRSC04008,,23808,,8347,
CG12491 + CG34105,DRSC04124,,3651,10656,768,2598
CG15256 (GeneID 34911),DRSC01491,,23616,,12298,
CG15256 (GeneID 34911),DRSC01940,,2296,4892,839,2535
CG8635 (GeneID 35850),DRSC07226,,7221,,2451,
Tom (GeneID 39619),DRSC11306,,4012,,1952,
CG5969 (GeneID 40269),DRSC11789,,6336,,3337,
